Laboratory results: doi:10.1101/2022.03.04.482948
These are yes or no findings as the source states them, for the method shown. In cells and extracts the contact can be indirect. Some entries that bind do so weakly or less than the wild type.

Chains of the proteins cited; added tags and fusions are not shown.
UniProt Q9UKV8: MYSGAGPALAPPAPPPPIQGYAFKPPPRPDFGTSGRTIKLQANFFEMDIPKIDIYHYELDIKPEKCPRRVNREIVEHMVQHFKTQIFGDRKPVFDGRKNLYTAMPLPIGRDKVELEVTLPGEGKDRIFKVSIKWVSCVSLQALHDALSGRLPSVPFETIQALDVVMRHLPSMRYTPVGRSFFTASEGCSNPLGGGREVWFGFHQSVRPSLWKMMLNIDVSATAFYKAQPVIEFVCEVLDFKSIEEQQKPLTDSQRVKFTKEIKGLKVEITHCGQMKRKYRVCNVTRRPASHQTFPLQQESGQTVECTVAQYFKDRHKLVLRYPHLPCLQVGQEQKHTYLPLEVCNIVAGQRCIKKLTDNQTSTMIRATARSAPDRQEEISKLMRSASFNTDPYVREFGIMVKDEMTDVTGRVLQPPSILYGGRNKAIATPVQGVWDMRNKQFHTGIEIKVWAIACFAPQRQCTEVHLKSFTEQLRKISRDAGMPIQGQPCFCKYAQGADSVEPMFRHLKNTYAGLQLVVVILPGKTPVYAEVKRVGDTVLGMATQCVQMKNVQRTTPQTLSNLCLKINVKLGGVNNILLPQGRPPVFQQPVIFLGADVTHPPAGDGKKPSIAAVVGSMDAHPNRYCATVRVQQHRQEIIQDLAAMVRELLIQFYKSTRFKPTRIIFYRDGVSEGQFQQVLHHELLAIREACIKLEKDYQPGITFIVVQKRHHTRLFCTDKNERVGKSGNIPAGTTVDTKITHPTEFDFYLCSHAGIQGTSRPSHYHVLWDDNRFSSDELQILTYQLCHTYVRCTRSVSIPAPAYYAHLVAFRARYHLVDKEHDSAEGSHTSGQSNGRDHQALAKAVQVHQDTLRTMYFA
UniProt P09405: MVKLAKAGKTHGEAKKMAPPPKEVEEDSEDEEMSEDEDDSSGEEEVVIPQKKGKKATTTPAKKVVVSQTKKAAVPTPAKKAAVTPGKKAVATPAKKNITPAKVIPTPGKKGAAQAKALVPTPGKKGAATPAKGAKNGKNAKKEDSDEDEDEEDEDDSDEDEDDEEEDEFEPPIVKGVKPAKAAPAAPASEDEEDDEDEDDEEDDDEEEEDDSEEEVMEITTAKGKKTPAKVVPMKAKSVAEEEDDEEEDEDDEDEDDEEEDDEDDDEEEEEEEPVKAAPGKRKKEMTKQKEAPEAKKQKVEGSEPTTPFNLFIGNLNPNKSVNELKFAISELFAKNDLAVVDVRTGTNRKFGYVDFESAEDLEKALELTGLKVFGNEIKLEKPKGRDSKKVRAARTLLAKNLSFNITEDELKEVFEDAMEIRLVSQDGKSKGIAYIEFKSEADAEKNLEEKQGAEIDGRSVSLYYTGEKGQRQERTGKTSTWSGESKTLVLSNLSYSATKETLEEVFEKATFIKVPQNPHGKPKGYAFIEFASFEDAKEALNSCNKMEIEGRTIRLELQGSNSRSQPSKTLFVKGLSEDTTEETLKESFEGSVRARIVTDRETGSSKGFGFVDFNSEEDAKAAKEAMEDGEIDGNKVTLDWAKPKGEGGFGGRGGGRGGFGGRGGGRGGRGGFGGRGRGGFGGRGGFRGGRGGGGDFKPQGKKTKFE

Target: FLAG-tagged AGO2, full-length (human) (UniProt Q9UKV8)
Test: co-IP

binding: binds
Substance: Nucleolin (from UniProt P09405 1-707)
